Measured values as given in patent US20060270591A1, “Androgen receptor coregulators” (priority 2002, published 2006).
These are yes or no findings as the source states them, for the method shown. For some of these results: In cells and extracts the contact can be indirect. Some binding calls cover weakened binding; strength is not graded here. For some of these results: Sequences can lack the tags named with a protein.

Chains of the proteins cited; added tags and fusions are not shown. Lines headed by an entry give the natural chain unless they say otherwise; changes in a name come on top.
UniProt P10275: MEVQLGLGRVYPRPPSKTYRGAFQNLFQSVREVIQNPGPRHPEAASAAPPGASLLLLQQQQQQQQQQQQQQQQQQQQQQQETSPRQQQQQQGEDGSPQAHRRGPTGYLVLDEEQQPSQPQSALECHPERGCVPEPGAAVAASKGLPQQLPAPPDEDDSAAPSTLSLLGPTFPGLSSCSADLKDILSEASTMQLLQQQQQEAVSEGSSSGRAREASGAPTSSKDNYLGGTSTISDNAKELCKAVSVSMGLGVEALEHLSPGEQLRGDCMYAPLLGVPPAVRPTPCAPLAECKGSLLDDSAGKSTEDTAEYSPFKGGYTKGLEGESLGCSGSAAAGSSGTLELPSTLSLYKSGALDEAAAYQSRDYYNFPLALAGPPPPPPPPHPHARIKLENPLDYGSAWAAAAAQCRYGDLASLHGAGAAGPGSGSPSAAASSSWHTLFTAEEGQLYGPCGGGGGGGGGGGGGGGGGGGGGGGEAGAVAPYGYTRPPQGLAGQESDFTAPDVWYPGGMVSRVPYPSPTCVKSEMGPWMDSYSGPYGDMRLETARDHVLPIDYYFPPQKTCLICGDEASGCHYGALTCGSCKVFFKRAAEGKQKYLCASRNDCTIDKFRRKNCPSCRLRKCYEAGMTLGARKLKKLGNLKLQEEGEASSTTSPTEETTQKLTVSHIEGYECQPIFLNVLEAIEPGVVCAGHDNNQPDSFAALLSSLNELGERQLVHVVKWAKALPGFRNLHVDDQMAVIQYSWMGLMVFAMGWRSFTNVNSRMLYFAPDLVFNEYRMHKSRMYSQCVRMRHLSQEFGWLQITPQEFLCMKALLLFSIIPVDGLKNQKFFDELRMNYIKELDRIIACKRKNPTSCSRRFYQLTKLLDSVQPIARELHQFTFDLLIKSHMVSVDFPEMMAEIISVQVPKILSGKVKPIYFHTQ

Columns and labels:
[1] = molecular target: GAL4 DBD fused full-length ARA54 (human); assay: mammalian two-hybrid, DU145, pG5-CAT
[2] = molecular target: AR-C (aa 553-918), in vitro translated (human) (UniProt P10275); assay: GST pull-down
[3] = molecular target: androgen receptor (AR), full-length, human (human) (UniProt P10275); assay: GST pull-down
[4] = molecular target: androgen receptor (AR), full-length, human (human) (UniProt P10275); assay: GST pull-down of [35S]-labeled AR
[5] = molecular target: AR-C (aa 553-918), in vitro translated (human) (UniProt P10275); assay: GST pull-down of [35S]-labeled AR fragments
[6] = molecular target: GAL4 DBD fused full-length ARA54 (human); assay: mammalian two-hybrid
[7] = molecular target: androgen receptor (AR), full-length, human (human) (UniProt P10275); assay: co-immunoprecipitation of in vitro translated proteins, anti-His-tag antibodies

Binder | binding [1] | binding [2] | binding [3] | binding [4] | binding [5] | binding [6] | binding [7]
VP16 AD fused C'-ARA54 (amino acids 361-474) (protein) RNEYLQADEANKRLLDQRYGKRVIQKALEEMESKEWLEKNSKSCPCCGTPIEKLDGCNKMTCTGCMQYFCWICMGSLSRANPYKHFNDPGSPCFNRLFYAVDVDDDIWEDEVED | binds |  |  |  |  |  | 
GST-ARA267N1 (ARA267 aa 1-382) (protein, not shown: a dimerising Fc or GST) MPLKTRTALSDDPDSSTSTLGNMLELPGTSSSSTSQELPFCQPKKKSTPLKYEVGDLIWAKFKRRPWWPCRICSDPLINTHSKMKVSNRRPYRQYYVEAFGDPSERAWVAGKAIVMFEGRHQFEELPVLRRRGKQKEKGYRHKVPQKILSKWEASVGLAEQYDVPKGSKNRKCIPGSIKLDSEEDMPFEDCTNDPESEHDLLLNGCLKSLAFDSEHSADEKEKPCAKSRARKSSDNPKRTSVKKGHIQFEAHKDERRGKIPENLGLNFISGDISDTQASNELSRIANSLTGSNTAPGSFLFSSCGKNTAKKEFETSNGDSLLGLPEGALISKCSREKNKPQRSLVCGSKVKLCYIGAGDEEKRSDSISICTTSDDGSSDLDP |  | binds | binds | binds | binds |  | 
GST-ARA267N2 (ARA267 aa 1-984) (protein, not shown: a dimerising Fc or GST) MPLKTRTALSDDPDSSTSTLGNMLELPGTSSSSTSQELPFCQPKKKSTPLKYEVGDLIWAKFKRRPWWPCRICSDPLINTHSKMKVSNRRPYRQYYVEAFGDPSERAWVAGKAIVMFEGRHQFEELPVLRRRGKQKEKGYRHKVPQKILSKWEASVGLAEQYDVPKGSKNRKCIPGSIKLDSEEDMPFEDCTNDPESEHDLLLNGCLKSLAFDSEHSADEKEKPCAKSRARKSSDNPKRTSVKKGHIQFEAHKDERRGKIPENLGLNFISGDISDTQASNELSRIANSLTGSNTAPGSFLFSSCGKNTAKKEFETSNGDSLLGLPEGALISKCSREKNKPQRSLVCGSKVKLCYIGAGDEEKRSDSISICTTSDDGSSDLDPIEHSSESDNSVLEIPDAFDRTENMLSMQKNEKIKYSRFAATNTRVKAKQKPLISNSHTDHLMGCTKSAEPGTETSQVNLSDLKASTLVHKPQSDFTNDALSPKFNLSSSISSENSLIKGGAANQALLHSKSKQPKFRSIKCKHKENPVMAEPPVINEECSLKCCSSDTKGSPLASISKSGKVDGLKLLNNMHEKTRDSSDIETAVVKHVLSELKELSYRSLGEDVSDSGTSKPSKPLLFSSASSQNHIPIEPDYKFSTLLMMLKDMHDSKTKEQRLMTAQNLVSYRSPGRGDCSTNSPVGVSKVLVSGGSTHNSEKKGDGTQNSANPSPSGGDSALSGELSASLPGLLSDKRDLPASGKSRSDCVTRRNCGRSKPSSKLRDAFSAQMVKNTVNRKALKTERKRKLNQLPSVTLDAVLQGDRERGGSLRGGAEDPSKEDPLQIMGHLTSEDGDHFSDVHFDSKVKQSDPGKISEKGLSFENGKGPELDSVMNSENDELNGVNQVVPKKRWQRLNQRRTKPRKRMNRFKEKENSECAFRVLLPSDPVQEGRDEFPEHRTPSASILEEPLTEQNHADCLDSAGPRLNVCDKSSASIGDMEKEPGI |  | binds | binds | binds | binds |  | 
GST-ARA267C (ARA267 aa 1716-2427) (protein, not shown: a dimerising Fc or GST) IRYAQEHDITNFYMLTLDKDRIIDAGPKGNYARFMNHCCQPNCETQKWSVNGDTRVGLFALSDIKAGTELTFNYNLECLGNGKTVCKCGAPNCSGFLGVRPKNQPIATEEKSKKFKKKQQGKRRTQGEITKEREDECFSCGDAGQLVSCKKPGCPKVYHADCLNLTKRPAGKWECPWHQCDICGKEAASFCEMCPSSFCKQHREGMLFISKLDGRLSCTEHDPCGPNPLEPGEIREYVPPPVPLPPGPSTHLAEQSTGMAAQAPKMSDKPPADTNQMLSLSKKALAGTCQRPLLPERPLERTDSRPQPLDKVRDLAGSGTKSQSLVSSQRPLDRPPAVAGPRPQLSDKPSPVTSPSSSPSVRSQPLERPLGTADPRLDKSIGAASPRPQSLEKTSVPTGLRLPPPDRLLITSSPKPQTSDRPTDKPHASLSQRLPPPEKVLSAVVQTLVAKEKALRPVDQNTQSKNRAALVMDLIDLTPRQKERAASPHQVTPQADEKMPVLESSSWPASKGLGHMPRAVEKGCVSDPLQTSGKAAAPSEDPWQAVKSLTQARLLSQPPAKAFLYEPTTQASGRASAGAEQTPGPLSQSPGLVKQAKQMVGGQQLPALAAKSGQSFRSLGKAPASLPTEEKKLVTTEQSPWALGKASSRAGLWPIVAGQTLAQSCWSAGSTQTLAQTCWSLGRGQDPKPEQNTLPALNQAPSSHKCAESEQK |  | binds | binds | binds | binds |  | 
VP16 AD fused full-length ARA54 (protein) MSSEDREAQEDELLALASIYDGDEFRKAESVQGGETRIYLDLPQNFKIFVSGNSNECLQNSGFEYTICFLPPLVLNFELPPDYPSSSPPSFTLSGKWLSPTQLSALCKHLDNLWEEHRGSVVLFAWMQFLKEETLAYLNIVSPFELKIGSQKKVQRRTAQASPNTELDFGGAAGSDVDQEEIVDERAVQDVESLSNLIQEILDFDQAQQIKCFNSKLFLCSICFCEKLGSECMYFLECRHVYCKACLKDYFEIQIRDGQVQCLNCPEPKCPSVATPGQVKELVEAELFARYDRLLLQSSLDLMADVVYCPRPCCQLPVMQEPGCTMGICSSCNFAFCTLCRLTYHGVSPCKVTAEKLMDLRNEYLQADEANKRLLDQRYGKRVIQKALEEMESKEWLEKNSKSCPCCGTPIEKLDGCNKMTCTGCMQYFCWICMGSLSRANPYKHFNDPGSPCFNRLFYAVDVDDDIWEDEVED | binds |  |  |  |  | binds | 
ARA54, full-length, in vitro translated (protein) MSSEDREAQEDELLALASIYDGDEFRKAESVQGGETRIYLDLPQNFKIFVSGNSNECLQNSGFEYTICFLPPLVLNFELPPDYPSSSPPSFTLSGKWLSPTQLSALCKHLDNLWEEHRGSVVLFAWMQFLKEETLAYLNIVSPFELKIGSQKKVQRRTAQASPNTELDFGGAAGSDVDQEEIVDERAVQDVESLSNLIQEILDFDQAQQIKCFNSKLFLCSICFCEKLGSECMYFLECRHVYCKACLKDYFEIQIRDGQVQCLNCPEPKCPSVATPGQVKELVEAELFARYDRLLLQSSLDLMADVVYCPRPCCQLPVMQEPGCTMGICSSCNFAFCTLCRLTYHGVSPCKVTAEKLMDLRNEYLQADEANKRLLDQRYGKRVIQKALEEMESKEWLEKNSKSCPCCGTPIEKLDGCNKMTCTGCMQYFCWICMGSLSRANPYKHFNDPGSPCFNRLFYAVDVDDDIWEDEVED |  |  |  |  |  |  | binds
